Reference: patent US20180064659A1, “AGENTS USEFUL FOR TREATING OBESITY, DIABETES AND RELATED DISORDERS” (The Regents of the University of California, priority 2015, published 2018)
For at least one compound, name, drawing or mass did not settle the structure.

Test system: FL83B cells
Assay: High-throughput in-cell western blot (ICWB) screen for insulin sensitizers, P-Akt over P-ERK
Type: cell-based, mouse
Settings: 1689 molecules screened
Method: Drugs were screened by in-cell western blot (ICWB) for their ability to stimulate phospho-Akt activation in the presence of trace or 10 nM insulin (FIG. 4A). Cells in wells were treated with drugs, and the activity (phosphorylation) of Akt was determined by a phospho-Akt specific antibody. In FIG. 4A, low insulin was given and drugs a, b, c, stimulated Akt activation. In FIG. 4B, 10 nM insulin was given and a, b, and c stimulated signaling over background, and d and […] inhibited. […] Drugs were primarily screened for their ability to promote insulin-dependent stimulation of (phospho)Akt, then secondarily screened for lack of activity to stimulate (phospho) Erk, or a high Akt/Erk ratio. Such drugs are expected to cause insulin sensitivity, resistance to obesity, and longevity. Some drugs having these desired characteristics are Shc inhibitors. […]
Secondary Drug Screening protocol for FIGS. 4A-C: ICWB was performed analogously as described above, but drugs were used at seven concentrations of 0.01, 0.1, 1, 2.5, 5, 7.5 and 10 μM in duplicate and insulin was used at two concentrations of 1 nM and 10 nM. The levels of insulin-dependent activation of Akt and ERK were measured with appropriate antibody and normalized to tubulin expression in each well. […]

For C[C@H]1O[C@H](O[C@H]2[C@H](O)[C@@H](O)[C@@H](O[C@H]3[C@H](O)[C@@H](O)C(O)O[C@@H]3CO)O[C@@H]2CO)[C@H](O)[C@@H](O)[C@@H]1N[C@H]1C=C(CO)[C@@H](O)[C@H](O)[C@H]1O (stereo partly shown) [acarbose], the “Score rank in screening assay” value was “scored in the top 35 out of 1689 molecules”.
